Drawing on paper PMC10954470, this text covers binding for two molecules.

This experiment concerns the target GBD-Rad50 head domain (Rad50 head fused to the Gal4 binding domain, plasmid pAB2287) (S. cerevisiae). In words: two-hybrid; GBD and GAD fusion plasmids co-transformed in YAB125 cells; 10-fold dilutions spotted on SC -leu -trp with or without histidine; 30°C, three or four days.

Substitutions are numbered along the chain they refer to. Names may count otherwise. Results are given in words; binding and its absence hold for the method and conditions named. Binding calls can cover weak binding; strength is not graded here. Sequences can lack the tags named with a protein.

B1: GAD-Rif2 (wild-type Rif2 fused to the Gal4 activation domain, plasmid pAB1243) (protein, UniProt Q06208 1-395)
chain: MEHVDSDFAPIRRSKKVVDSDKIVKAISDDLEQKNFTVLRKLNLVPIKKSVSSPKVCKPSPVKERVDHVFYQKFKSMALQELGTNYLSISYVPSLSKFLSKNLRSMKNCIVFFDKVEHIHQYAGIDRAVSETLSLVDINVVIIEMNDYLMKEGIQSSKSKECIESMGQASYSGQLDFEASEKPSNHTSDLMMMVMRKINNDESIDHIVYFKFEQLDKLSTSTIIEPSKLTEFINVLSVLEKSNNIAFKVLIYSNNVSISSLLSTSLKKKLNTKYTVFEMPILTCAQEQEYLKKMIKFTFDSGSKLLQSYNSLVTCQLNNKESNLAIFFEFLKVFPHPFTYLFNAYTEIIVQSRTFDELLDKIRNRLTIKNYPHSAYNFKKNQRLPLKLTRKVHDR
For B1, the binding result was “binds”.

B2: GAD-Rif2^I23E (Rif2 I23E fused to the Gal4 activation domain, plasmid pML801) (protein, UniProt Q06208 1-395)
chain: B1 chain with I23E
Turning to B2, the binding entry is reported as “binds”.
